Measurements reported in PubChem BioAssay AID743121 (NCATS, 2013).

Test: 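Knock-downs that sensitise breast cancer cells to camptothecin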 (primary screen)
Cell system: MDA-MB-231 cells, a human breast cancer line
Reagents: single siRNA against human genes, 20 nM siRNA (0.8 pmol per well)
Timing: 120 h (drug added 48 h after transfection, read 72 h later)
Conditions: camptothecin 20 nM (about EC30) for 72 h; vehicle 0.1% DMSO in parallel plates
Detection: 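Cell viability by ATP luminescence (CellTiter-Glo) as % of non-targeting siRNA wells, and the log2 ratio of viability without drug over viability with camptothecin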
Scale: log2 vehicle/camptothecin viability: higher = stronger sensitisation to camptothecin; viability with camptothecin: higher = more viable cells
Call rule: 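Active genes have an RSA gene-level p-value below 0.001, computed from the ratios of their separate siRNAs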
The deposit covers about 26,000 reagents; below is a random part of them. 167 of all reagents (0.63%) were called active. 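Calls are per gene from RSA p-values that are not deposited; an individual active-marked siRNA can sensitise only weakly.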 Entries without a mark were called inactive. The numbers tell different reagents against one gene apart. Further read-outs or replicates are left out here.

no.	Target gene	reagent no.	log2 vehicle/camptothecin viability	viability with camptothecin (% of control)
1	VAV2	1	-0.31	116
2	VAV2	2	-0.134	72.7
3	VAV2	3	-0.102	111
4	SOCS1	1	-0.0738	109
5	SOCS1	2	-0.333	82.4
6	SOCS1	3	-0.0727	68.6
7	TAOK2	1	0.176	62.4
8	TAOK2	2	0.0807	55.9
9	TAOK2	3	0.179	57.1
10	TAOK2	4	-0.413	90.3
11	ADA2	1	0.348	43.4
12	ADA2	2	0.035	101
13	ADA2	3	-0.34	107
14	MAPK11	1	-0.399	73.5
15	MAPK11	2	-0.776	99.7
16	MAPK11	3	-0.358	15.2
17	MAPK11	4	-0.359	87.4
18	NME9	1	0.525	36.1
19	NME9	2	-0.282	68.5
20	NME9	3	-0.308	113
21	NME9	4	0.879	44.4
22	ALDOB	1	-0.298	75.6
23	ALDOB	2	0.317	72.2
24	ALDOB	3	-0.29	65.7
25	ALDOB	4	-0.274	100
26	GRM6	1	-0.087	84.5
27	GRM6	2	-0.278	37
28	GRM6	3	-0.236	82.5
29	GRM6	4	-0.0719	96.6

10 entries from above, arranged by “viability with camptothecin (% of control)”, descending:
Target gene	reagent no.	log2 vehicle/camptothecin viability	viability with camptothecin (% of control)
NME9	3	-0.308	113
MAPK11	2	-0.776	99.7
MAPK11	4	-0.359	87.4
ALDOB	1	-0.298	75.6
MAPK11	1	-0.399	73.5
ALDOB	2	0.317	72.2
NME9	2	-0.282	68.5
NME9	4	0.879	44.4
NME9	1	0.525	36.1
MAPK11	3	-0.358	15.2

The list goes on.
no.	Target gene	reagent no.	log2 vehicle/camptothecin viability	viability with camptothecin (% of control)
30	TINAGL1	1	-0.454	91.8
31	TINAGL1	2	-0.315	57.2
32	TINAGL1	3	-0.449	92
33	TINAGL1	4	-0.224	97.8
34	DKK2	1	-0.167	101
35	DKK2	2	0.0771	68
36	DKK2	3	0.0608	102
37	DKK2	4	0.469	62.7
38	APOBR	1	0.205	47.7
39	APOBR	2	-0.0667	72.4
40	APOBR	3	-0.325	76.3
41	APOBR	4	-0.307	96
42	KLC3	1	0.0179	49.4
43	KLC3	2	-0.00408	59.1
44	KLC3	3	-0.281	113
45	KLC3	4	-0.182	91
46	AFM	1	-0.297	98.4
47	AFM	2	0.204	27.8
48	AFM	3	-0.247	53.2
49	TMPRSS6	1	-0.158	96.6
50	TMPRSS6	2	-0.296	84
51	TMPRSS6	3	-0.177	113
52	ANLN	1	-0.164	126
53	ANLN	2	-0.367	84.2
54	ANLN	3	-0.299	50.9
55	ANLN	4	-0.368	84.5
56	SLC25A11	1	-0.333	77
57	SLC25A11	2	-0.228	79.4
58	SLC25A11	3	-0.5	20
59	SLC25A11	4	-0.263	59.3
60	GPR3	1	-0.194	52.3
61	GPR3	2	0.527	62.8
62	GPR3	3	-0.27	71.1
63	GPR3	4	0.0393	61.9
64	PLTP	1	0.223	63.4
65	PLTP	2	-0.158	23.4
66	PLTP	3	-0.15	95.7
67	PLTP	4	-0.413	73.6
68	RPS6KB1	1	-0.381	127
69	RPS6KB1	2	0.806	19.2
70	RPS6KB1	3	-0.5	69.6
71	RPS6KB1	4	1.73	25.8
